Reference: patent US20240415975A1 (ABTIS, published 2024)
These are yes or no findings as the source states them, for the method shown. Some binding calls cover weakened binding; strength is not graded here.

By UniProt entry, the sequences of proteins in these tests, tags left out. Where a name states a change or a piece, a line headed by the entry shows the natural chain unless it says otherwise. Chains listed by the source or under a name are the forms on record and can include a tag or linker.
Claudin 18.2 protein (CLDN18.2), expressed on cells (P56856, form named): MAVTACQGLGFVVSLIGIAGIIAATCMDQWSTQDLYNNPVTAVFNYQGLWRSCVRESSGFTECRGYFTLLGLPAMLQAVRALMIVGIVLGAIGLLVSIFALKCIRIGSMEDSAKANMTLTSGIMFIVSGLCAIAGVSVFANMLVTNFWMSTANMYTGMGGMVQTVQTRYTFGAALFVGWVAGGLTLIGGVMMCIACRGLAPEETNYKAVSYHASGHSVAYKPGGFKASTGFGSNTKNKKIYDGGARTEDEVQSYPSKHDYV

Experiments:
[1] = biological target: CLDN18.2 virus-like particle (VLP) in which the claudin 18.2 protein (CLDN18.2) was expressed (UniProt P56856); experiment: indirect ELISA on plate coated with CLDN18.2 VLP
[2] = biological target: Claudin 18.2 protein (CLDN18.2), expressed on cells (UniProt P56856); experiment: cell-based ELISA on CLDN18.2-positive cancer cell lines
[3] = biological target: Claudin 18.2 protein (CLDN18.2), expressed on cells (UniProt P56856); experiment: cell-based ELISA on MIA PaCa-2-CLDN18.2, SNU601 and PATU8988S cells
[4] = biological target: Claudin 18.2 protein (CLDN18.2), expressed on cells (UniProt P56856); experiment: cell-based ELISA on CHO-K1 cells transiently transfected with CLDN18.2

Measured: binding

B1: anti-Claudin 18.2 antibody (Anti-CLDN18.2 mAb) (antibody-A) (antibody, human IgG1, kappa, V domains shown)
VH: QVQLVESGGGVVQPGRSLRLSCAASGFSLTTYGVHWVRQAPGKGLEWVAVIWAGGSTNYNSALMSRFTISRDNSKNTLYLQMNSLRAEDTAVYYCARAAYYGNGLDYWGQGTMVTVSS
VL: DIVMTQSPLSLPVTPGEPASISCKSSQTLLNSGNQKNYLTWYLQKPGQSPQLLIYWASTGESGVPDRFSGSGSGTDFTLKISRVEAEDVGVYYCQNAYFYPFTFGGGTKVEIKR
notes: two heavy and two light chains; Elsewhere called an IgG1 type anti-CLDN18.2 antibody; Obtained from GenScript ProBio
binds: all assays above
